PubChem BioAssay AID652272, Drosophila RNAi Screening Center | 2013

Screen: 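Genes whose knock-down decreases or increases Hedgehog reporter output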 (primary screen)
System: Drosophila clone 8 (Cl8) cells
Knock-down reagent: long dsRNA against Drosophila genes
Measurement: 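Firefly light from a Hedgehog-responsive ptc promoter reporter and Renilla reference light, both read on a plate reader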
Direction: firefly Hh reporter signal: higher = more ptc reporter light; Renilla reference signal: higher = more Renilla control light
Hit rule: 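Hit when the z-score averaged over two replicates is under -2 or over +3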
Meaning of the calls: active = hit: reporter lowered or raised; inactive = not a hit
The deposit covers about 21,000 reagents; shown is an unselected part of those that have a named target and a result. Over the whole deposit, 503 (2.4%) are marked active. 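Raw plate light values, not normalised; calls rest on replicate z-scores that were not deposited; hits include reporter decreases as well as increases.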 A number with no mark means an inactive call. Names joined by + are all predicted targets of the reagent. Not given: the amount of reagent, the time to read-out.

target,DRSC id,"firefly Hh reporter signal, replicate 1","firefly Hh reporter signal, replicate 2","firefly Hh reporter signal, replicate 3","Renilla reference signal, replicate 1","Renilla reference signal, replicate 2"
CG42850 (retired record) (GeneID 10178850),DRSC00872,5.18e5,89634,,3513,3513
moi + Tgs1,DRSC16371,4.93e5,81072,,26633,1905
CG30484 (GeneID 36534),DRSC05457,1.28e5,2.30e5,,7869,8144
Mat1 (GeneID 36130),DRSC07465,79808,38272,,2006,3616
CG42262 (retired record) (GeneID 50410),DRSC17628,3.91e5,1.30e5,,23541,2272
CG42262 (retired record) (GeneID 50410),DRSC17974,78986,2.97e5,,1687,10189
Exn (GeneID 39900),DRSC09673,58425,71799,,3395,3682
Exn (GeneID 39900),DRSC10077,88576,,,5346,2731
CG4393 (GeneID 42764),DRSC15573,6.54e5,1.22e5,,29773,2352
Miox (GeneID 39391),DRSC10747,45415,57073,43064,5223,3101
CG16717 (GeneID 39129),DRSC10221,31298,62822,61888,4234,4076
Mkk4 (GeneID 41020),DRSC16739,91056,91344,,3984,3013
CG8219 (GeneID 38722),DRSC10971,65978,62128,,6362,3765
CG13699 (GeneID 40008),DRSC10048,1.41e5,,,4114,3895
CG9095 (GeneID 32447),DRSC20150,77492,2.15e5,,2598,8006
porin (GeneID 34500),DRSC03594,1.08e5,92653,,4157,4093
BORCS6 (GeneID 38068),DRSC08514,82258,46433,,2025,3637
CG5390 (GeneID 34383),DRSC02855,1.22e5,40908,,3207,4155
CG30037 (GeneID 246409),DRSC07305,72492,35482,,1338,2688
Obp56c (GeneID 170882),DRSC06552,1.66e5,6.63e5,90007,4420,36154
CG6700 (GeneID 34496),DRSC02980,76825,71265,,2731,2780
SRPK (GeneID 36706),DRSC07090,73403,75953,,3739,3239
oxt (GeneID 38288),DRSC08522,1.08e5,1.02e5,,4896,4304
CG13384 (GeneID 34160),DRSC02258,81841,35629,,3315,1367
spg (GeneID 43404),DRSC14373,75456,96394,,2912,3312
spg (GeneID 43404),DRSC14881,1.06e5,1.40e5,,3760,4550
CG16700 (GeneID 32694),DRSC19755,65298,1.47e5,,1952,6672
CG7137 (GeneID 37204),DRSC07017,94506,58608,,5682,2557
CG13794 (GeneID 34048),DRSC02298,1.02e5,42512,,1785,3863
Pde11 (GeneID 35107),DRSC02028,5.36e5,1.01e5,,5417,5417
Pde11 (GeneID 35107),DRSC02460,51686,43910,,858,5561
p-cup (GeneID 32727),DRSC19513,76924,2.66e5,,1827,10088
CG6295 (GeneID 43247),DRSC16012,1.26e5,97542,,4208,2794
kug (GeneID 40191),DRSC10911,1.17e5,55168,,4685,2532
yin (GeneID 31340),DRSC18854,2.02e5,1.45e5,,4342,4412
CG3500 (GeneID 37697),DRSC04379,71629,39689,,1570,4803
Ugt35B1 (GeneID 41333),DRSC16893,1.05e5,76596,,4163,3036
Cul1 (GeneID 35742),DRSC07645,90011,52794,,2953,1639
Agpat3 (GeneID 39820),DRSC10445,98818,53232,,3792,1904
CG3473 (GeneID 34849),DRSC01915,2.32e5,71920,,5307,6459
CG7755 (GeneID 36816),DRSC07040,1.66e5,89840,,4449,7872
CG33301 (GeneID 2768917),DRSC02778,1.02e5,42809,,2647,4325
CG12594 (GeneID 41416),DRSC14532,1.27e5,1.38e5,,4456,3719
CG9997 (GeneID 43395),DRSC16591,72953,91216,,2192,2764
CG12229 (GeneID 39945),DRSC09868,82544,,,2123,2528
CG9752 (GeneID 37431),DRSC04562,65331,42748,,2605,1456
CG17470 (GeneID 35321),DRSC02621,75891,43037,,3017,1827
Fbxl4 (GeneID 32378),DRSC19805,1.41e5,68135,,3094,1922
CG15312 (GeneID 31940),DRSC18000,78133,70612,,1642,1632
Cen (GeneID 35330),DRSC02704,1.24e5,64256,,4521,2209
Gr2a (GeneID 31093),DRSC18603,1.02e5,3.25e5,,3763,12347
bigmax (GeneID 43293),DRSC15481,1.39e5,1.40e5,,2992,3836
sisA (GeneID 32068),DRSC20374,67693,1.36e5,,1905,5697
Neurochondrin (GeneID 40796),DRSC12580,1.00e5,81243,,4348,3288
CG8517 (GeneID 37268),DRSC07205,1.02e5,85296,,2848,6933
CG9166 (GeneID 38161),DRSC07842,61956,47988,,2428,3344
CG15333 (GeneID 31720),DRSC18016,69286,1.48e5,,2352,5885
CG15333 (GeneID 31720),DRSC18153,74843,1.78e5,,2586,6640

3 successive entries already listed, quoted:
target,DRSC id,"firefly Hh reporter signal, replicate 1","firefly Hh reporter signal, replicate 2","firefly Hh reporter signal, replicate 3","Renilla reference signal, replicate 1","Renilla reference signal, replicate 2"
SRPK (GeneID 36706),DRSC07090,73403,75953,,3739,3239
oxt (GeneID 38288),DRSC08522,1.08e5,1.02e5,,4896,4304
CG13384 (GeneID 34160),DRSC02258,81841,35629,,3315,1367
